Structures can show the parent of a compound that is named as a salt. Whole data set: some 1,100 compounds, median “Wnt reporter firefly/Renilla luciferase ratio relative to plate median” near 1.1, cut for the highest 2% near 1.6. The list shows a part of the results, in another mix than the full data.
Test system: HEK293T (UBE3A T485A transfected, BAR Wnt reporter)
Test: Wnt reporter firefly/Renilla luciferase ratio relative to plate median (fold (linear ratio)); higher = more Wnt/beta-catenin reporter activation
Details: 24 h
Outline: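 HEK293T cells carrying a transfected BAR firefly luciferase Wnt reporter, TK-Renilla and an expression plasmid were exposed to chemicals at 0.01–100 uM for 24 h, with dosing four hours after transfection. Readout used Dual-Glo luciferase. The firefly/Renilla ratio defined Wnt activity and raw Renilla defined cell health, each median-centred per plate. Figures are means of four biological replicates.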

`CCC(=O)O[C@H]1CC[C@H]2[C@@H]3CCC4=CC(=O)CC[C@]4(C)[C@H]3CC[C@]12C` [Testosterone propionate] was tested, and the “Wnt reporter firefly/Renilla luciferase ratio” value (concentration: 0.1 uM) was 1.18, the “Wnt reporter firefly/Renilla luciferase ratio” value (concentration: 1 uM) was 1.15 and the “Wnt reporter firefly/Renilla luciferase ratio” value (concentration: 10 uM) was 1.14. For the same compound, the “Wnt reporter firefly/Renilla luciferase ratio” value (concentration: 100 uM) was 0.787.

`N#CCCCCC#N` [Hexanedinitrile] was tested, and the “Wnt reporter firefly/Renilla luciferase ratio” value (concentration: 0.1 uM) was 1.07, the “Wnt reporter firefly/Renilla luciferase ratio” value (concentration: 1 uM) was 1.58 and the “Wnt reporter firefly/Renilla luciferase ratio” value (concentration: 10 uM) was 1.13. For the same compound, the “Wnt reporter firefly/Renilla luciferase ratio” value (concentration: 100 uM) was 0.979.

For `CCCC1COC(Cn2cncn2)(c2ccc(Cl)cc2Cl)O1` (centres undefined) [Propiconazole], the “Wnt reporter firefly/Renilla luciferase ratio” value (concentration: 0.01 uM) was 0.957, the “Wnt reporter firefly/Renilla luciferase ratio” value (concentration: 0.1 uM) was 1.03 and the “Wnt reporter firefly/Renilla luciferase ratio” value (concentration: 1 uM) was 1.17. For the same compound, the “Wnt reporter firefly/Renilla luciferase ratio” value (concentration: 10 uM) was 0.78.

With `O=S1OCC2C(CO1)C1(Cl)C(Cl)=C(Cl)C2(Cl)C1(Cl)Cl` (centres undefined) [Endosulfan] the “Wnt reporter firefly/Renilla luciferase ratio” value (concentration: 0.01 uM) was 0.727, the “Wnt reporter firefly/Renilla luciferase ratio” value (concentration: 0.1 uM) was 1.05 and the “Wnt reporter firefly/Renilla luciferase ratio” value (concentration: 1 uM) was 0.98. For the same compound, the “Wnt reporter firefly/Renilla luciferase ratio” value (concentration: 10 uM) was 0.946 and the “Wnt reporter firefly/Renilla luciferase ratio” value (concentration: 100 uM) was 0.756.

With `C#CCN1C(=O)COc2cc(F)c(N3C(=O)C4=C(CCCC4)C3=O)cc21` [Flumioxazin] the “Wnt reporter firefly/Renilla luciferase ratio” value (concentration: 0.01 uM) was 0.966, the “Wnt reporter firefly/Renilla luciferase ratio” value (concentration: 0.1 uM) was 0.916 and the “Wnt reporter firefly/Renilla luciferase ratio” value (concentration: 1 uM) was 1.25. For the same compound, the “Wnt reporter firefly/Renilla luciferase ratio” value (concentration: 10 uM) was 1.1 and the “Wnt reporter firefly/Renilla luciferase ratio” value (concentration: 100 uM) was 0.717.

`COS(=O)(=O)OC` [Dimethyl sulfate] was tested, and the “Wnt reporter firefly/Renilla luciferase ratio” value (concentration: 0.1 uM) was 1.04, the “Wnt reporter firefly/Renilla luciferase ratio” value (concentration: 1 uM) was 0.948 and the “Wnt reporter firefly/Renilla luciferase ratio” value (concentration: 10 uM) was 1.09. For the same compound, the “Wnt reporter firefly/Renilla luciferase ratio” value (concentration: 100 uM) was 0.389.

For `CCOc1nc(F)cc2nc(S(=O)(=O)Nc3c(Cl)cccc3Cl)nn12` [Diclosulam], the “Wnt reporter firefly/Renilla luciferase ratio” value (concentration: 0.01 uM) was 1.4, the “Wnt reporter firefly/Renilla luciferase ratio” value (concentration: 0.1 uM) was 1.38 and the “Wnt reporter firefly/Renilla luciferase ratio” value (concentration: 1 uM) was 0.954. For the same compound, the “Wnt reporter firefly/Renilla luciferase ratio” value (concentration: 10 uM) was 1.05 and the “Wnt reporter firefly/Renilla luciferase ratio” value (concentration: 100 uM) was 0.892.

With `COc1cccc(C(=O)NN(C(=O)c2cc(C)cc(C)c2)C(C)(C)C)c1C` [Methoxyfenozide] the “Wnt reporter firefly/Renilla luciferase ratio” value (concentration: 0.01 uM) was 0.986, the “Wnt reporter firefly/Renilla luciferase ratio” value (concentration: 0.1 uM) was 1.11 and the “Wnt reporter firefly/Renilla luciferase ratio” value (concentration: 1 uM) was 1.06. For the same compound, the “Wnt reporter firefly/Renilla luciferase ratio” value (concentration: 10 uM) was 1.04 and the “Wnt reporter firefly/Renilla luciferase ratio” value (concentration: 100 uM) was 0.281.

In the case of `OCCCl` [2-Chloroethanol], the “Wnt reporter firefly/Renilla luciferase ratio” value (concentration: 0.1 uM) is reported as 1.16, the “Wnt reporter firefly/Renilla luciferase ratio” value (concentration: 1 uM) is reported as 1.06 and the “Wnt reporter firefly/Renilla luciferase ratio” value (concentration: 10 uM) is reported as 0.986. For the same compound, the “Wnt reporter firefly/Renilla luciferase ratio” value (concentration: 100 uM) was 1.4.

For `O=C(O)C(F)(F)C(F)(F)C(F)(F)C(F)(F)C(F)(F)C(F)(F)F` [Perfluoroheptanoic acid], the “Wnt reporter firefly/Renilla luciferase ratio” value (concentration: 0.1 uM) was 0.82, the “Wnt reporter firefly/Renilla luciferase ratio” value (concentration: 1 uM) was 1.02 and the “Wnt reporter firefly/Renilla luciferase ratio” value (concentration: 10 uM) was 0.932. The “Wnt reporter firefly/Renilla luciferase ratio” value (concentration: 100 uM) was 0.483.

In the case of `CC1=C(C(=O)Nc2ccccc2)SCCO1` [Carboxin], the “Wnt reporter firefly/Renilla luciferase ratio” value (concentration: 0.01 uM) is reported as 1.29, the “Wnt reporter firefly/Renilla luciferase ratio” value (concentration: 0.1 uM) is reported as 1.12 and the “Wnt reporter firefly/Renilla luciferase ratio” value (concentration: 1 uM) is reported as 0.984. The “Wnt reporter firefly/Renilla luciferase ratio” value (concentration: 10 uM) was 1.53 and the “Wnt reporter firefly/Renilla luciferase ratio” value (concentration: 100 uM) was 0.587.

With `CCNc1nc(NC(C)C)nc(SC)n1` [Ametryn] the “Wnt reporter firefly/Renilla luciferase ratio” value (concentration: 0.01 uM) was 0.686, the “Wnt reporter firefly/Renilla luciferase ratio” value (concentration: 0.1 uM) was 0.725 and the “Wnt reporter firefly/Renilla luciferase ratio” value (concentration: 1 uM) was 0.813. The “Wnt reporter firefly/Renilla luciferase ratio” value (concentration: 10 uM) was 1.29 and the “Wnt reporter firefly/Renilla luciferase ratio” value (concentration: 100 uM) was 0.791.

From the supplement of paper PMC9254222
